From US20230338431A1
Results are given in words; binding and its absence hold for the method and conditions named. Some entries that bind do so weakly or less than the wild type.

Sequences of proteins named here, by UniProt entry; tags and fusion partners are left off.
UniProt P16220: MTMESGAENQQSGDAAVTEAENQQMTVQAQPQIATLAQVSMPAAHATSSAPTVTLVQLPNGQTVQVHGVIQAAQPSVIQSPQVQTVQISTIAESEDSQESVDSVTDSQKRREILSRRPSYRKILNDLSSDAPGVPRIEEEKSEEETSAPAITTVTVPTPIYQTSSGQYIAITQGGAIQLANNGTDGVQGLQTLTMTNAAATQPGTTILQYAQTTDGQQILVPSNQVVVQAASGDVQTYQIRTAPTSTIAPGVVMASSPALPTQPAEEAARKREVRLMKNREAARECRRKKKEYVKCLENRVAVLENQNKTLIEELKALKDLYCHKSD
UniProt P31749: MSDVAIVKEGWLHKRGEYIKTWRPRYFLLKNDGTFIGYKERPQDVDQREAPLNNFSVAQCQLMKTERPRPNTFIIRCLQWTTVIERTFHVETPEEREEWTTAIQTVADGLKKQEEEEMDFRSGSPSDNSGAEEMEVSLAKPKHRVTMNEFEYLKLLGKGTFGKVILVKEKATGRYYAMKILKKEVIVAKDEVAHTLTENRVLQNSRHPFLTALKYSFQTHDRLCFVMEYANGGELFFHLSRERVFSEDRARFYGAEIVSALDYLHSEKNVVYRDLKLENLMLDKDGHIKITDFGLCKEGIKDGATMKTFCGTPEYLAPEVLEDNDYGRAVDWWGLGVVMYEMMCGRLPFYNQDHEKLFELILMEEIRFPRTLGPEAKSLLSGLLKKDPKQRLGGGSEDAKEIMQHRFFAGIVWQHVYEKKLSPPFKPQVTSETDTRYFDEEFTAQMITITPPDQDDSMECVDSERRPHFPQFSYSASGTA

Assays:
[1] = biological target: cAMP response element-binding protein 1 (CREB1) (human (endogenous in hTS cells)) (UniProt P16220); assay: immunoprecipitation from lysates of bFGF-treated hTS cells, then immunoblot (FIG. 8D)
[2] = biological target: cAMP response element-binding protein 1 (CREB1) (human (endogenous in hTS cells)) (UniProt P16220); assay: immunoprecipitation from lysates of bFGF-treated hTS cells, then immunoblot
[3] = biological target: cAMP response element-binding protein 1 (CREB1) (human (endogenous in hTS cells)) (UniProt P16220); assay: immunoprecipitation from lysates of bFGF-treated hTS cells, then immunoblot (FIG. 10I)

binding [1]: binds | binding [2]: binds | binding [3]: binds
Substance: protein kinase B (AKT) subunit AKT1 (from UniProt P31749 1-480) (enzyme)
